The record followed here is patent US20210205286A1.

Amino acid sequences for entries named in this document (tags omitted).
UniProt Q93008: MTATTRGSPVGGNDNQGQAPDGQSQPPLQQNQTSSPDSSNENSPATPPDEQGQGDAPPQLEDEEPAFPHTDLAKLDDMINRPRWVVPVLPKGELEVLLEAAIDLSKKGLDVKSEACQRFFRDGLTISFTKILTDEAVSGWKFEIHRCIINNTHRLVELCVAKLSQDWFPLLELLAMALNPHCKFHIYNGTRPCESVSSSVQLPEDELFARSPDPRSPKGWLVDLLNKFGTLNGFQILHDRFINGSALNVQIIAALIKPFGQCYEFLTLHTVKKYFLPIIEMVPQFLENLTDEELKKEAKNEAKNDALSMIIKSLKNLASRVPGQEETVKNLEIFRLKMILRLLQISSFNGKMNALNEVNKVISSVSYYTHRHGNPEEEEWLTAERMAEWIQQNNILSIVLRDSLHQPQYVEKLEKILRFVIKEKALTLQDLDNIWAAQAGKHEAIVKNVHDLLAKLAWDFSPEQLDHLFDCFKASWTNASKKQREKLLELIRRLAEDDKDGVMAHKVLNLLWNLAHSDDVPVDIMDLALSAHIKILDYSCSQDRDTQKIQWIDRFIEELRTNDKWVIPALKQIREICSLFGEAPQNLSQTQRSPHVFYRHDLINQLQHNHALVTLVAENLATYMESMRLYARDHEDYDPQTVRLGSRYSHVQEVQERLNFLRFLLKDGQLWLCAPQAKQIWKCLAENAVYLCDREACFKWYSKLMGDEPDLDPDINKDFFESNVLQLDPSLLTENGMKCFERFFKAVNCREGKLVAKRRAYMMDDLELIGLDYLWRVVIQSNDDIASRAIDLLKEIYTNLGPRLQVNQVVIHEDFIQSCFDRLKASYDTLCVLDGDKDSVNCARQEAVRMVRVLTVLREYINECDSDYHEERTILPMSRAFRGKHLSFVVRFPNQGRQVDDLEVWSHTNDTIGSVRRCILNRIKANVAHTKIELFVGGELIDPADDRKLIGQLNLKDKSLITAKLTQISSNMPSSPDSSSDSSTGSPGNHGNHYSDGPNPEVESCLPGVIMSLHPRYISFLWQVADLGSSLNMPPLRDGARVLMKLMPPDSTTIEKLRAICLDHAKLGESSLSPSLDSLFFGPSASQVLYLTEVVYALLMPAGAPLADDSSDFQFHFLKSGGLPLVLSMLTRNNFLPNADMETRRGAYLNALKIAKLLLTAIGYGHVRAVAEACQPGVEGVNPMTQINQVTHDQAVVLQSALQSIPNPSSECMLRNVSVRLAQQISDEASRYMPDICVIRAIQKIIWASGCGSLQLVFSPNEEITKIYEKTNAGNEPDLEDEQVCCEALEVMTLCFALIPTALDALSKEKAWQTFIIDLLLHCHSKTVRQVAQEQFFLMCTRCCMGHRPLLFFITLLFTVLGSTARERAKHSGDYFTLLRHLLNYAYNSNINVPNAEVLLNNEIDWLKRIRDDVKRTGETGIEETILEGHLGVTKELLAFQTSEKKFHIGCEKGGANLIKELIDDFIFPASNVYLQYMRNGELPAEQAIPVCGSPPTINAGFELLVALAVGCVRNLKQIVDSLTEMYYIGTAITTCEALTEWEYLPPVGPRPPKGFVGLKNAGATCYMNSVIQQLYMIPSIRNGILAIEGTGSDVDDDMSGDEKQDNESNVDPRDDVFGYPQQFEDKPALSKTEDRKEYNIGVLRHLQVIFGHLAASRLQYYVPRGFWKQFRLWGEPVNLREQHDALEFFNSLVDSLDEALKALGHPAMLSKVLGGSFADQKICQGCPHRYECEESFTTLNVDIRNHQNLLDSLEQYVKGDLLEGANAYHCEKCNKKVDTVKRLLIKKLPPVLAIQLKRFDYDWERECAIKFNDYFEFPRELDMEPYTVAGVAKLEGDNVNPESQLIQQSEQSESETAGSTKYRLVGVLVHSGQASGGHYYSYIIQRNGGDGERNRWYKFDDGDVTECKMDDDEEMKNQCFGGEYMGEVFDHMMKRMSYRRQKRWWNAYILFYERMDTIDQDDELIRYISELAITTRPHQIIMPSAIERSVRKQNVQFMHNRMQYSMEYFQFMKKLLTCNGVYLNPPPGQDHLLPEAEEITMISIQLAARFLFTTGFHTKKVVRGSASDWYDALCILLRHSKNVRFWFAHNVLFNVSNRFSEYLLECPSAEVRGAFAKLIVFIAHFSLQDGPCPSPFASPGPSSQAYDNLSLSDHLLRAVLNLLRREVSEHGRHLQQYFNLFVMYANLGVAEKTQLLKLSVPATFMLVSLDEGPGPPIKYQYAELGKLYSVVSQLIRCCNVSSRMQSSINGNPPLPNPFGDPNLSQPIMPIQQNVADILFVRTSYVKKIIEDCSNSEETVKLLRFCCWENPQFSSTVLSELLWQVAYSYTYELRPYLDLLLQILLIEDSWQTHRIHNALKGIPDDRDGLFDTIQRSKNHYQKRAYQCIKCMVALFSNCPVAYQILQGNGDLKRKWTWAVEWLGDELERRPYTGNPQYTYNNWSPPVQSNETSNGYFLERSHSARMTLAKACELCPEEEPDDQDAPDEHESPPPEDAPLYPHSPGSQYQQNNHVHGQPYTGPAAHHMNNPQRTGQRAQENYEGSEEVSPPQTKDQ

Results are given in words; binding and its absence hold for the method and conditions named. Binding seen in cells or lysates may run through a third protein. Some entries that bind do so weakly or less than the wild type. Sequences can lack the tags named with a protein.

The assay addresses USP9X (endogenous) (UniProt Q93008). Description: co-IP, anti-FLAG IP, blot with anti-USP9X (FIG. 4D).

B1: FLAG-TAK1 (enzyme, UniProt O43318 1-606, looked up, not shown: small tags and cut ends)
chain: MSTASAASSSSSSSAGEMIEAPSQVLNFEEIDYKEIEVEEVVGRGAFGVVCKAKWRAKDVAIKQIESESERKAFIVELRQLSRVNHPNIVKLYGACLNPVCLVMEYAEGGSLYNVLHGAEPLPYYTAAHAMSWCLQCSQGVAYLHSMQPKALIHRDLKPPNLLLVAGGTVLKICDFGTACDIQTHMTNNKGSAAWMAPEVFEGSNYSEKCDVFSWGIILWEVITRRKPFDEIGGPAFRIMWAVHNGTRPPLIKNLPKPIESLMTRCWSKDPSQRPSMEEIVKIMTHLMRYFPGADEPLQYPCQYSDEGQSNSATSTGSFMDIASTNTSNKSDTNMEQVPATNDTIKRLESKLLKNQAKQQSESGRLSLGASRGSSVESLPPTSEGKRMSADMSEIEARIAATTAYSKPKRGHRKTASFGNILDVPEIVISGNGQPRRRSIQDLTVTGTEPGQVSSRSSSPSVRMITTSGPTSEKPTRSHPWTPDDSTDTNGSDNSIPMAYLTLDHQLQPLAPCPNSKESMAVFEQHCKMAQEYMKVQTEIALLLQRKQELVAELDQDEKDQQNTSRLVQEHKKLLDENKSLSTYYQQCKKQLEVIRSQQQKRQGTS
Turning to B1, the binding result is on record as “binds”.
